The record followed here is US9199941B2, “Pyrazole indanyl carboxamides” (BAYER CROPSCIENCE AG, priority 2012, dated 2015).

This data set in a line: log P by HPLC on reversed phase columns (EEC directive 79/831 Annex V.A8). Format: physicochemical. Particulars: Table 1, compounds of formula (I); method [a]: LC-MS at pH 2.7, 0.1% formic acid in water / acetonitrile.

As to `CC(C)CC1CC(C)c2c(NC(=S)c3cn(C)nc3C(F)F)cccc21` (stereo not shown) [Example 44], the logP is 4.61[a].
